Experimental data taken from publication PMC6579465.

Chains of the proteins cited; added tags and fusions are not shown.
UniProt Q62717: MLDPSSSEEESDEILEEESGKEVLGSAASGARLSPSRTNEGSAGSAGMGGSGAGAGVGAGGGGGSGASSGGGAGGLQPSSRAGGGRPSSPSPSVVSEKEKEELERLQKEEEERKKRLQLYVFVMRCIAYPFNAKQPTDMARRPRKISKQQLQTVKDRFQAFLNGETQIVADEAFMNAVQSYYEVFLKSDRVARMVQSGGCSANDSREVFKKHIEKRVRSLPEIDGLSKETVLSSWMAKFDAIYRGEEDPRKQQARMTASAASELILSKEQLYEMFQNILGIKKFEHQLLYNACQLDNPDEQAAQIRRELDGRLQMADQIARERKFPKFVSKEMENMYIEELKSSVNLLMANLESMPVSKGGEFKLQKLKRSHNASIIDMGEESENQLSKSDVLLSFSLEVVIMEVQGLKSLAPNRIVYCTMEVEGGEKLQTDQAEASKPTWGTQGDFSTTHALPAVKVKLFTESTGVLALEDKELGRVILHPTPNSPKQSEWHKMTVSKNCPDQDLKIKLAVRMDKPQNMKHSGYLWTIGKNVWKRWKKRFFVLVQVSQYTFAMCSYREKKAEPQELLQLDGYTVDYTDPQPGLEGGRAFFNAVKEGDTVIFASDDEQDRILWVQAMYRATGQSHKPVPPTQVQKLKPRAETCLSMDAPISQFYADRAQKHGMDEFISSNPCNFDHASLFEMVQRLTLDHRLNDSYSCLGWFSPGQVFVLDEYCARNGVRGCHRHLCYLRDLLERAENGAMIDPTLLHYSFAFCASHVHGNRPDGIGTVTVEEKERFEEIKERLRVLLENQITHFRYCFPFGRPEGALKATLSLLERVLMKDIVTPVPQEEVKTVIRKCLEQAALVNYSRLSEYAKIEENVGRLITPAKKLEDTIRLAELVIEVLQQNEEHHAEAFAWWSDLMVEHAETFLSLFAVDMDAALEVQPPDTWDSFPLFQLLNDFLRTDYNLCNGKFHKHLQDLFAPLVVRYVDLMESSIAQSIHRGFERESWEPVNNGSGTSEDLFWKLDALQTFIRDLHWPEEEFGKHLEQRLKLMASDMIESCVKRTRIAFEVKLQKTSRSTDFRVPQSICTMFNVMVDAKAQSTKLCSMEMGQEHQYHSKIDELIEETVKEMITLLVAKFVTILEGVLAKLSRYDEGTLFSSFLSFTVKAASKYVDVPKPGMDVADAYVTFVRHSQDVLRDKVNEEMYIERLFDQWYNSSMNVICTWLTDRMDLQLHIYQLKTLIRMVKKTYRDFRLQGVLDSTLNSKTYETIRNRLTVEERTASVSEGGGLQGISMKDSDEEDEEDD
UniProt Q9ERH3: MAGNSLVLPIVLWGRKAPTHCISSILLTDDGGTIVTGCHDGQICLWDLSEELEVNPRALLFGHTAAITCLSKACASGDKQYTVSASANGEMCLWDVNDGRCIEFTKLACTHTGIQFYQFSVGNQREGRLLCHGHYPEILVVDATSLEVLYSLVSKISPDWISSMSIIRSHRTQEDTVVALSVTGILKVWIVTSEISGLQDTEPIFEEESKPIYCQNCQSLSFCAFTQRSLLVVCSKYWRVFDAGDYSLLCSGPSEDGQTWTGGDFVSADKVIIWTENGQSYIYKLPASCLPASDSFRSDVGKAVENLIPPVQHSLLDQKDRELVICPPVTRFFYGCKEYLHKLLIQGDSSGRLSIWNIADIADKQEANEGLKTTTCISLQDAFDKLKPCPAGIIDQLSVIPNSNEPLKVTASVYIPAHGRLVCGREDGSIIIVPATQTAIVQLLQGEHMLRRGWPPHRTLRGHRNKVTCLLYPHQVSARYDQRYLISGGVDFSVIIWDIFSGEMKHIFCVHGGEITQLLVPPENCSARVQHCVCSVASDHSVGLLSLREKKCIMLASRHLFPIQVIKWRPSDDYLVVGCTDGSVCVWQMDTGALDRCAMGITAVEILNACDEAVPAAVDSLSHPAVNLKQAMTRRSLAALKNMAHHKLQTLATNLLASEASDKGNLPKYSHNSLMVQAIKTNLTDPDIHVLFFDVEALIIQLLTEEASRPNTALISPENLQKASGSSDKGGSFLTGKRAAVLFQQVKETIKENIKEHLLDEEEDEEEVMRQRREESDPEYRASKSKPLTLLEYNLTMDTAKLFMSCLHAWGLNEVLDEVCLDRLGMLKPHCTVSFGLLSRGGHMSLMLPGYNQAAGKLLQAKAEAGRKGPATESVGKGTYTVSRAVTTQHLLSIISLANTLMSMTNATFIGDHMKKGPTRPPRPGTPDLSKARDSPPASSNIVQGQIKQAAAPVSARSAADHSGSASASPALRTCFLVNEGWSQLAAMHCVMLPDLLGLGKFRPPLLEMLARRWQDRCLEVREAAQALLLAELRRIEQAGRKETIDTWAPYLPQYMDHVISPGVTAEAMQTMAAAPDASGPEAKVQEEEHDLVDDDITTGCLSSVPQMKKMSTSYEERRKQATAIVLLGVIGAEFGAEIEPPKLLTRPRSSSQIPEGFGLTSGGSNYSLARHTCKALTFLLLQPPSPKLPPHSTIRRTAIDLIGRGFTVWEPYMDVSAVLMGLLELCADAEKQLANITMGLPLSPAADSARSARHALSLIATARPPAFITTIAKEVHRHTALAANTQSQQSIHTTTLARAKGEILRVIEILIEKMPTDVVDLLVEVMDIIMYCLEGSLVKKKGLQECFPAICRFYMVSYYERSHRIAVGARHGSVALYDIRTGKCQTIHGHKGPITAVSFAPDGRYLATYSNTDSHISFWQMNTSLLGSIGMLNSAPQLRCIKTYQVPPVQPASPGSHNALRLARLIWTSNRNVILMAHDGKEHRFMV

Target: CAPS1 (calcium-dependent activator protein for secretion, CADPS) (rat (endogenous in rat brain)) (UniProt Q62717)
Test: affinity purification with mass spectrometry; CAPS peptide antibody on Protein A Dynabeads; rat brain crude synaptosomal membranes solubilized in 1% Triton X-100; 1 h at 4 °C; washes in PBS with 1% Triton X-100; elution with the CAPS 21-mer peptide; LC-MS/MS of the whole eluate; control nonimmune rabbit IgGs

Row | Substance | binding
1 | Rab3-GEF (from UniProt O08873 1-1602) | no binding
2 | Rabconnectin3β (Rbcn3β) / WD repeat domain 7 (WDR7) (from UniProt Q9ERH3 1-1488) | binds

No constants are given. Whether binding was seen depends on the method and setting. In cells and extracts the contact can be indirect. Here binding means that the protein was enriched with, or labelled near, the bait; the list need not be complete. A no says only that the protein was not detected with the bait.
